According to patent US4000985A, “Azo dyes having a high solubility in petroleum fuels” (Morton-Norwich Products, Inc., priority 1975, dated 1977):

Assay: Relative color strength and shade of dye solutions in No. 2 Heating Oil
Assay type: physicochemical
Settings: for % Relative Strength: equal quantities of dye

Question: For `CCCCC(CC)COCCCNc1ccc2ccccc2c1N=Nc1ccc(N=Nc2ccccc2C)cc1C` (stereo not shown) [Example 7], which “Relative Shade” value is on record?
Answer: The value was “Blue Red”.

Question: And the “% Relative Strength” value?
Answer: Its value is 100%.

Question: With `CCCCC(CC)CNc1ccc2ccccc2c1N=Nc1cc(C)c(N=Nc2ccccc2C)cc1C` (stereo not shown) [Example 4] as the molecule, how does the “Relative Shade” value read?
Answer: The value was “Duller Blue Red”.

Question: What about the “% Relative Strength” value of the same molecule?
Answer: The value was 92%.

Question: With `CCCCC(CC)COCCCNc1ccc2ccccc2c1N=Nc1ccc(N=Nc2ccccc2)cc1C` (stereo not shown) [Example 9] as the molecule, how does the “Relative Shade” value read?
Answer: The value was “Blue Red”.

Question: And the “% Relative Strength” value?
Answer: Its value is 97%.

Question: Which results are given for `CCCCC(CC)CNc1ccc2ccccc2c1N=Nc1ccc(N=Nc2ccccc2)cc1C` (stereo not shown) [Example 3]?
Answer: Relative Shade: Blue Red; % Relative Strength: 112%

Question: What does the source list for `CCCCC(CC)CNc1ccc2ccccc2c1N=Nc1ccc(N=Nc2ccccc2C)cc1C` (stereo not shown) [Example 1]?
Answer: Relative Shade: Blue Red; % Relative Strength: 100%

Question: With `CCCCC(CC)COCCCNc1ccc2ccccc2c1N=Nc1ccc(N=Nc2ccccc2)cc1` (stereo not shown) [Example 8] as the molecule, how does the “Relative Shade” value read?
Answer: The value was “Yellower Red”.

Question: What about the “% Relative Strength” value of the same molecule?
Answer: Its value is 103%.

Question: For `CCCCC(CC)COCCCNc1ccc2ccccc2c1N=Nc1cc(C)c(N=Nc2ccccc2C)cc1C` (stereo not shown) [Example 10], which “Relative Shade” value is on record?
Answer: The value was “Bluer Red”.

Question: What about the “% Relative Strength” value of the same molecule?
Answer: The value was 90%.

Question: With `CCCCC(CC)CNc1ccc2ccccc2c1N=Nc1ccc(N=Nc2ccccc2)cc1` (stereo not shown) [Example 2] as the molecule, how does the “Relative Shade” value read?
Answer: Its value is “Blue Red”.

Question: What about the “% Relative Strength” value of the same molecule?
Answer: The value was 121%.
